# The supplement of paper PMC7024190
# Some of the results follow. Repeats in this data set agree poorly, so a single value says little.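 A first-round screen of about ten thousand compounds sought those raising reporter output, using human embryonic kidney cells briefly transfected with a plasmid carrying a Renilla luciferase gene driven by the HSV-TK promoter.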
# System: HEK 293FT
# Experiment: log relative Renilla luciferase luminescence (reporter expression vs reference, reference not stated) (log (base not stated)); higher = higher recombinant reporter expression
# Conditions: 10 µM; time after transfection 48 h
# Experimental: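 HEK 293FT cells transiently transfected with pRL-TK (Renilla luciferase) were treated with compounds at 10 uM and luminescence was read about 42 h later. Values are log relative Renilla luminescence (log base and reference not stated). Single-pass screen; 2080 natural products library.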
row,Compound,log
1,CCCCCCCCCCCCCCCCCCCCCCCCCCCCOC(=O)/C=C/c1ccc(O)c(OC)c1 [Octacosyl (E)-ferulate],-0.0729
2,COc1cccc(O)c1 [m-Methoxyphenol],0.0171
3,C[C@H]1C[C@@H]2OC(=O)[C@@H](CO)[C@@H]2[C@@H]1CO [Gelsemiol],-0.199
4,Cc1cccc2c1ccc1c3occ(C)c3oc(=O)c21 [Tanshinlactone],-0.166
5,CC(C)=CCc1c(O)cc(O)c2c1O[C@H](c1ccccc1)CC2=O [Glabranin],0.186
6,O=C1c2cc(O)cc(O)c2C(=O)c2c(O)cc(CO)cc21 [Citreorosein],0.112
7,CC(C)[C@@]1(O)C[C@@]2(O)[C@@]3(C)C[C@]4(O)O[C@@]5([C@H](O)[C@@H](C)CC[C@]35O)[C@@]2(O)[C@@]41C [Cinnzeylanol],-0.0904
8,COc1cc(OC)c2ccc(=O)oc2c1C[C@@H](O)C(C)(C)O [Isomexoticin],-0.215
9,CC(=O)O[C@H]1C[C@@]2(O)[C@@H](OC(C)=O)[C@@H]3[C@@]4(CO4)[C@@H](OC(C)=O)C[C@H](OC(C)=O)[C@@]3(C)[C@@H](OC(C)=O)[C@H](OC(C)=O)C(=C1C)C2(C)C [1-Hydroxybaccatin I],-0.363
10,O[C@@H]1CC[C@@]2(O)CCO[C@H]2C1 [Cleroindicin E],-0.0122
11,CC(C)C1=CC2=CCC3C(C)(C(=O)O)CCCC3(C)C2CC1O (stereo not given) [12-Hydroxyabietic acid],-0.327
12,COc1ccc(C[C@H]2CO[C@H](c3ccc(OC)c(OC)c3)[C@H]2CO)cc1OC [Lariciresinol dimethyl ether],0.0888
13,CCCCCCCCCCCCCCCCCCCCCCCC(=O)OCCCc1ccc(O)c(OC)c1 [3-(4-Hydroxy-3-methoxyphenyl)propyl tetracosanoate],-0.0526
14,C[C@@H]1O[C@@H](Oc2c(-c3ccc(O)c(O)c3)oc3cc(O)cc(O)c3c2=O)[C@H](O)[C@H](O)[C@H]1O [Quercetin 3-O-alpha-L-rhamnoside],0.0852
15,CC#Cc1ccc(C#CC#CC(O)CO)s1 (stereo not given) [Echinoynethiophene A],0.157
16,C=C(C)[C@H]1O[C@@H]1c1c(OC)ccc2ccc(=O)oc12 [Phebalosin],-0.0776
17,CO[C@H]1[C@H](O)[C@@H](O)[C@@H](O)[C@H](O)[C@@H]1O [D-Pinitol],-0.215
18,COc1cc(/C=C/C(N)=O)ccc1O [Ferulamide],-0.00294
19,C=C(CO)[C@@H]1CC[C@H]2[C@]3(CC[C@]4(C)[C@@H]([C@H](C)CC[C@@H](O)C(C)(C)O)CC[C@@]24C)C[C@]13CCC(=O)O [Secaubrytriol],-0.0564
20,"C[C@@H]1CC[C@]2(C(=O)O)CC[C@]3(C)C(=CC[C@@H]4[C@@]5(C)CCC(=O)C(C)(C)[C@@H]5[C@H](O)C[C@]43C)[C@@H]2[C@]1(C)O [6,19-Dihydroxyurs-12-en-3-oxo-28-oic acid]",-0.619

# Taken from above:
# log, `C[C@@H]1O[C@@H](Oc2c(-c3ccc(O)c(O)c3)oc3cc(O)cc(O)c3c2=O)[C@H](O)[C@H](O)[C@H]1O` [Quercetin 3-O-alpha-L-rhamnoside] is entered as 0.0852
# log, `CC(C)=CCc1c(O)cc(O)c2c1O[C@H](c1ccccc1)CC2=O` [Glabranin] is entered as 0.186

# The list continues.

row,Compound,log
1,C=C1C(=O)O[C@@H]2C[C@@H]3[C@]4(CC[C@]5(C)[C@@H]([C@H](C)CC/C=C(\C)C=O)CC[C@@]35C)C[C@]4(CCC(=O)O)[C@H]12 [Coronalolide],0.102
2,C/C=C1\CN2CCc3c([nH]c4ccccc34)C2CC1C(Cc1c[n+]2c(c3[nH]c4ccccc4c13)CC1C(C(=O)OC)=COC(C)C1C2)C(=O)OC (stereo not given) [Serpentinine],-0.256
3,CC1(C)[C@H](O)CC[C@@]2(C)[C@@H]3CC[C@](C)([C@@H](O)CO)C=C3[C@@H](O)C[C@H]12 [7-Hydroxydarutigenol],-0.222
4,CC(=O)O[C@@H]1C(=O)[C@]2(C)[C@H](CC[C@@]3(C)[C@H](c4ccoc4)OC(=O)[C@H]4O[C@]432)[C@@]23COC(=O)C[C@@H]2OC(C)(C)[C@@H]13 [Glaucin B],-0.123
5,C=C1C(=O)[C@]23[C@H](O)[C@H]1CC[C@H]2[C@@]12CO[C@@]3(O)[C@@H](O)[C@@H]1[C@](C)(COC(C)=O)CC[C@H]2O [Xerophilusin G],-0.028
6,COc1c(O)cc(CC2(O)Oc3cc(O)cc(O)c3C2=O)cc1O (stereo not given) [Amaronol B],0.16
7,C=C1CC[C@]2(C)CC[C@]3(C)[C@H](CC[C@@H]4[C@@]5(C)CC[C@H](O)C(C)(C)[C@@H]5CC[C@]43C)[C@H]2[C@@H]1C [Taraxasterol],0.0568
8,Cc1coc2c1C(=O)C(=O)c1c-2ccc2c1CCCC2(C)C [Tanshinone II],0.121
9,O=c1c2ccccc2nc2n1CCC2 [Deoxyvasicinone],-0.282
10,CC(=O)O[C@H]1C[C@@]2(O)[C@@H](OC(C)=O)[C@@H]3[C@]4(OC(C)=O)CO[C@@H]4C[C@H](OC(C)=O)[C@@]3(C)[C@@H](OC(C)=O)[C@H](OC(C)=O)C(=C1C)C2(C)C [Baccatin IV],-0.0805
11,C=C(C(=O)O)[C@H]1CC=C(CCC(C)=O)[C@@H](C)CC1 [4-Oxobedfordiaic acid],-0.0297
12,COc1ccc(C2CC(=O)c3c(OC)cc(OC)cc3O2)cc1 (stereo not given) [Naringenin trimethyl ether],0.163
13,Oc1ccc(C=Cc2cc(O)cc3c2C(c2cc(O)cc(O)c2)C(c2ccc(O)cc2)O3)cc1 (stereo not given) [Viniferin],0.0171
14,"CC1(C)CC(=O)C(C)(C)CC1=O [2,2,5,5-Tetramethylcyclohexane-1,4-dione]",-0.0581
15,"CC(=O)Oc1cc(OC(C)=O)cc(C2CC(=O)c3c(OC(C)=O)cc(OC(C)=O)cc3O2)c1 (stereo not given) [3',5,5',7-Tetraacetoxyflavanone]",-0.262
16,OCCCc1ccc(O)cc1 [3-(4-Hydroxyphenyl)-1-propanol],-0.023
17,COc1cc(O)c2c(c1)O[C@H](c1ccc(O)cc1)CC2=O [Sakuranetin],0.142
18,C=C1CC[C@H]2[C@@](C)(COC(C)=O)CCC[C@]2(C)[C@H]1CC/C(C)=C/COC(C)=O [Agathadiol diacetate],-0.119
19,CC1C(O)CC2C(CO)C(=O)OCC12 (stereo not given) [Alyxialactone],0.0528
20,C=C(C)[C@@H]1CC[C@]2(CO)CC[C@]3(C)[C@H](CC[C@@H]4[C@@]5(C)CC[C@H](OC(=O)CCCCCCCCCCCCCCC)C(C)(C)[C@@H]5CC[C@]43C)[C@@H]12 [Betulin palmitate],-0.108
